Experimental data reported in publication PMC8986538.
No constants are given. Whether binding was seen depends on the method and setting. Binding seen in cells or lysates may run through a third protein. Some binding calls cover weakened binding; strength is not graded here.

Amino acid sequences for entries named in this document (tags omitted). Residues count along the entry.
UniProt P05555, residues 17-1153: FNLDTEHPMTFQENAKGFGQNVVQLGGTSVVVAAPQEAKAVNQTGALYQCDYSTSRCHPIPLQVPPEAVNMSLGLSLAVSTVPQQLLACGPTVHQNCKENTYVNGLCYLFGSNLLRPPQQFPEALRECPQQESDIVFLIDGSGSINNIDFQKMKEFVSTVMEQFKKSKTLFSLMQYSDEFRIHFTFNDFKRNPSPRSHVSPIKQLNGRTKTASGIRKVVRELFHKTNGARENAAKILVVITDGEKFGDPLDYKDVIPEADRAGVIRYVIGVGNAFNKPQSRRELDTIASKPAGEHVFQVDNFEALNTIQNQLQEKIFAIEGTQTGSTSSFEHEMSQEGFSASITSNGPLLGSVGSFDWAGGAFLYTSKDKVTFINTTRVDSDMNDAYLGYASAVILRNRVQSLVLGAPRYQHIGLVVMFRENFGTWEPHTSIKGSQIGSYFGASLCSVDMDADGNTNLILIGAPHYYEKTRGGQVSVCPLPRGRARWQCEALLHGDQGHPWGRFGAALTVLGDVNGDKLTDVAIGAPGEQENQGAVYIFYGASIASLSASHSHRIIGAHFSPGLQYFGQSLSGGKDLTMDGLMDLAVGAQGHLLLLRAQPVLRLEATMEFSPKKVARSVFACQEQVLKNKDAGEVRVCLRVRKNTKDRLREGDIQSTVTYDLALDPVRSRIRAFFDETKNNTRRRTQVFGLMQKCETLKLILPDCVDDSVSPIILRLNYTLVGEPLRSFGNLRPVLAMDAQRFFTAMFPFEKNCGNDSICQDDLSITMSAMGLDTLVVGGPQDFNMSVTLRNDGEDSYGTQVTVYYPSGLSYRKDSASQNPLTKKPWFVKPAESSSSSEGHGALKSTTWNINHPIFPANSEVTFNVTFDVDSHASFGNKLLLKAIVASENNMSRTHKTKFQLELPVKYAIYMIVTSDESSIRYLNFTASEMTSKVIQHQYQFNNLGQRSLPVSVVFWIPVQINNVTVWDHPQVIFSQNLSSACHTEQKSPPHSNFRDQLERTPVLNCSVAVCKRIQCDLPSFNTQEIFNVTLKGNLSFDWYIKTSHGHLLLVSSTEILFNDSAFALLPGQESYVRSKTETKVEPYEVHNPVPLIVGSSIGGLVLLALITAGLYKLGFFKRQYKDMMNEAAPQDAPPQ
UniProt P11835, residues 24-771: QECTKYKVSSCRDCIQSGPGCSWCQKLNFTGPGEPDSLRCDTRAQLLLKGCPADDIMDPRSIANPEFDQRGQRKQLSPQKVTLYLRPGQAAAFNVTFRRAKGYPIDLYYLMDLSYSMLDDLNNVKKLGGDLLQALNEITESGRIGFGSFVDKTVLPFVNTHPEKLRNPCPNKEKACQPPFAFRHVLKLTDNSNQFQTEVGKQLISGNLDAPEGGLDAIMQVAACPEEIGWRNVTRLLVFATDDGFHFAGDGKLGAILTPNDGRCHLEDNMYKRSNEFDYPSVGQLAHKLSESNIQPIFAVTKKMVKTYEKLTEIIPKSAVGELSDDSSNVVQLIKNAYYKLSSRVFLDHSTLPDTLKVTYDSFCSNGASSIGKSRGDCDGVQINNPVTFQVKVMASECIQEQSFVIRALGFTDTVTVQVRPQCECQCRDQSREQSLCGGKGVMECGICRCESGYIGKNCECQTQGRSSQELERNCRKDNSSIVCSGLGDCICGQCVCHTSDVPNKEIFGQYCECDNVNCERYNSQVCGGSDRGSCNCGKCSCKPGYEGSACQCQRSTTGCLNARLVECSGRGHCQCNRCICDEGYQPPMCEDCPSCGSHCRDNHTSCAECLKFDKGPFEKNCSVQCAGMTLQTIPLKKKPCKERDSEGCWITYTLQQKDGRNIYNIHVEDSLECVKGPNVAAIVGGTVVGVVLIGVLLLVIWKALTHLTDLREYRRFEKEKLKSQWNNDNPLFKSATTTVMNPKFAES

Biological target: integrin subunit αM (ITGAM) (mouse (endogenous in neutrophils of C57BL/6J mice)) (UniProt P05555)
Test: co-IP; immunoprecipitation from lysates of purified wound-derived neutrophils 24 hours p.i., compared with blood neutrophils from non-wounded mice and with mice injected with the HSF inhibitors HSI or KRIBB11; immunoblots with anti-ITGAM and anti-ITGβ2; protocol as in ref. 43

binding: binds
Substance: integrin subunit beta 2 (ITGB2) (from UniProt P11835 24-771) (receptor)
